Measurements reported in PubChem BioAssay AID1508597 (Cure First, 2020).

Assay: 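Survival screen with siRNA in ovarian cancer cells derived from patients, with or without rucaparib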 (primary screen)
Cells: human ovarian carcinoma lines grown from tumours: OCI-P5x (papillary serous) and OCI-C5x (clear cell)
Reagent: siRNA pool against human genes, 1.25 pmol siRNA per well
Time to read-out: 72 h or 96 h, depending on the cell culture
Treatment: rucaparib 20 µM (about IC30) or vehicle, present until read-out
Rucaparib or vehicle: Vehicle
Cell line: OCI-P5x (serous)
Detection: 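Luminescent ATP-based viability assay read 72 or 96 h after transfection, depending on culture, given as normalised percent viability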
Scale: viability, normalised: higher = more viable cells remaining
Call rule: 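a well counts as a hit if its normalised viability is under 80 percent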
Meaning of the calls: active = viability under 80%; inactive = viability 80% or more
This is a random part of the about 2,100 reagents, in one setting of the screen. 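Calls flag viability under 80% in either arm, not effects specific to rucaparib; the reference for percent is not stated.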 Some reagents were tested in more than one well and are listed for each. The record does not give: the 100% reference.

What did the screen give for PCGF2 (polycomb group ring finger 2), technical replicate 1?
viability, normalised (%): 39.8; call: active

What did the screen give for PCGF2 (polycomb group ring finger 2), technical replicate 2?
viability, normalised (%): 47.6; call: active

What is on record for PCGF2 (polycomb group ring finger 2), technical replicate 3?
viability, normalised (%): 69.6; call: active

How did the screen score ATP7A (ATPase copper transporting alpha), technical replicate 1?
viability, normalised (%): 52.2; call: active

What is on record for ATP7A (ATPase copper transporting alpha), technical replicate 2?
viability, normalised (%): 65.3; call: active

With ATP7A (ATPase copper transporting alpha), technical replicate 3, how do the results read?
viability, normalised (%): 59.5; call: active

With PRDM9 (PR/SET domain 9), technical replicate 1, what was measured?
viability, normalised (%): 69.2; call: active

With PRDM9 (PR/SET domain 9), technical replicate 2, how do the results read?
viability, normalised (%): 85.3; call: inactive

What is on record for PRDM9 (PR/SET domain 9), technical replicate 3?
viability, normalised (%): 145; call: inactive

For ELP3 (elongator acetyltransferase complex subunit 3), technical replicate 1, what does the deposit list?
viability, normalised (%): 60; call: active

For ELP3 (elongator acetyltransferase complex subunit 3), technical replicate 2, what was measured?
viability, normalised (%): 70.2; call: active

How did the screen score ELP3 (elongator acetyltransferase complex subunit 3), technical replicate 3?
viability, normalised (%): 61.5; call: active

With TBL1XR1 (TBL1X/Y related 1), technical replicate 1, what was measured?
viability, normalised (%): 44; call: active

With TBL1XR1 (TBL1X/Y related 1), technical replicate 1, what does the deposit list?
viability, normalised (%): 89.2; call: inactive

What did the screen give for TBL1XR1 (TBL1X/Y related 1), technical replicate 2?
viability, normalised (%): 35.3; call: active

For TBL1XR1 (TBL1X/Y related 1), technical replicate 2, what was measured?
viability, normalised (%): 62.3; call: active

With TBL1XR1 (TBL1X/Y related 1), technical replicate 3, what does the deposit list?
viability, normalised (%): 92.3; call: inactive

How did the screen score TBL1XR1 (TBL1X/Y related 1), technical replicate 3?
viability, normalised (%): 40.1; call: active

With SP1 (Sp1 transcription factor), technical replicate 1, how do the results read?
viability, normalised (%): 58.5; call: active

For SP1 (Sp1 transcription factor), technical replicate 2, what was measured?
viability, normalised (%): 63; call: active

Which result is listed for SP1 (Sp1 transcription factor), technical replicate 3?
viability, normalised (%): 53.2; call: active

Laid out differently: 3 of the entries above.
{"Target gene":"ATP7A (ATPase copper transporting alpha)","technical replicate":"1","viability, normalised (%)":52.2,"call":"active"}
{"Target gene":"ATP7A (ATPase copper transporting alpha)","technical replicate":"2","viability, normalised (%)":65.3,"call":"active"}
{"Target gene":"ATP7A (ATPase copper transporting alpha)","technical replicate":"3","viability, normalised (%)":59.5,"call":"active"}

Next entries follow:
With GDAP2 (ganglioside induced differentiation associated protein 2), technical replicate 1, what was measured?
viability, normalised (%): 52.2; call: active

For GDAP2 (ganglioside induced differentiation associated protein 2), technical replicate 2, what does the deposit list?
viability, normalised (%): 67.2; call: active

With GDAP2 (ganglioside induced differentiation associated protein 2), technical replicate 3, what does the deposit list?
viability, normalised (%): 66.6; call: active

What did the screen give for ACTL6B (actin like 6B), technical replicate 1?
viability, normalised (%): 55.9; call: active

For ACTL6B (actin like 6B), technical replicate 2, how do the results read?
viability, normalised (%): 62.5; call: active

What did the screen give for ACTL6B (actin like 6B), technical replicate 3?
viability, normalised (%): 118; call: inactive

With JADE3 (jade family PHD finger 3), technical replicate 1, what was measured?
viability, normalised (%): 73.3; call: active

What did the screen give for JADE3 (jade family PHD finger 3), technical replicate 2?
viability, normalised (%): 70.1; call: active

Which result is listed for JADE3 (jade family PHD finger 3), technical replicate 3?
viability, normalised (%): 80.2; call: inactive

Which result is listed for FYN (FYN proto-oncogene, Src family tyrosine kinase), technical replicate 1?
viability, normalised (%): 81.6; call: inactive

For FYN (FYN proto-oncogene, Src family tyrosine kinase), technical replicate 2, how do the results read?
viability, normalised (%): 71.7; call: active

For FYN (FYN proto-oncogene, Src family tyrosine kinase), technical replicate 3, how do the results read?
viability, normalised (%): 87.6; call: inactive
